From the supplement of paper PMC10849652
Some of the results follow.

Chains of the proteins cited; added tags and fusions are not shown. Lines headed by an entry give the natural chain unless they say otherwise; changes in a name come on top.
UniProt Q9NRC1: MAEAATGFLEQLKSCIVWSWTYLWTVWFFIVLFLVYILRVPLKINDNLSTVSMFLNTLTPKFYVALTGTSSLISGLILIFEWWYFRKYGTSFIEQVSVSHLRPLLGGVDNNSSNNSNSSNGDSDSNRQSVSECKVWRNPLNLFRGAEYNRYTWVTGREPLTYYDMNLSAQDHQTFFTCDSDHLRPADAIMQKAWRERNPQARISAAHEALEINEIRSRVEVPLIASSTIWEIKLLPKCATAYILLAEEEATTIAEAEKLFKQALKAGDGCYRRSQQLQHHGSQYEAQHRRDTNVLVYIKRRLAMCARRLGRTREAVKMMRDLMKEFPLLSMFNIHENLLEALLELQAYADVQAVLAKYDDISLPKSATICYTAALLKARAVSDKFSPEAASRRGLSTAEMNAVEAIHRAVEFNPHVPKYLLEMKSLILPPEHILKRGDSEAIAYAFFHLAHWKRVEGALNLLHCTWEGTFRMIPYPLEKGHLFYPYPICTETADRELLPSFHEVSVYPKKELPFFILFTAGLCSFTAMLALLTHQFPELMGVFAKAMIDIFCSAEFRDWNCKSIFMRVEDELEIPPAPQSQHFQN
UniProt P61009: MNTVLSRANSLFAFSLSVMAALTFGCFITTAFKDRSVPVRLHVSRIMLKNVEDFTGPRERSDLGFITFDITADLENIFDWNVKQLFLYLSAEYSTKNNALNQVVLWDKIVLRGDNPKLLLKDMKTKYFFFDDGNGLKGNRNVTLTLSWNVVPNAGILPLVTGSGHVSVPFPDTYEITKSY
UniProt Q8WVM7: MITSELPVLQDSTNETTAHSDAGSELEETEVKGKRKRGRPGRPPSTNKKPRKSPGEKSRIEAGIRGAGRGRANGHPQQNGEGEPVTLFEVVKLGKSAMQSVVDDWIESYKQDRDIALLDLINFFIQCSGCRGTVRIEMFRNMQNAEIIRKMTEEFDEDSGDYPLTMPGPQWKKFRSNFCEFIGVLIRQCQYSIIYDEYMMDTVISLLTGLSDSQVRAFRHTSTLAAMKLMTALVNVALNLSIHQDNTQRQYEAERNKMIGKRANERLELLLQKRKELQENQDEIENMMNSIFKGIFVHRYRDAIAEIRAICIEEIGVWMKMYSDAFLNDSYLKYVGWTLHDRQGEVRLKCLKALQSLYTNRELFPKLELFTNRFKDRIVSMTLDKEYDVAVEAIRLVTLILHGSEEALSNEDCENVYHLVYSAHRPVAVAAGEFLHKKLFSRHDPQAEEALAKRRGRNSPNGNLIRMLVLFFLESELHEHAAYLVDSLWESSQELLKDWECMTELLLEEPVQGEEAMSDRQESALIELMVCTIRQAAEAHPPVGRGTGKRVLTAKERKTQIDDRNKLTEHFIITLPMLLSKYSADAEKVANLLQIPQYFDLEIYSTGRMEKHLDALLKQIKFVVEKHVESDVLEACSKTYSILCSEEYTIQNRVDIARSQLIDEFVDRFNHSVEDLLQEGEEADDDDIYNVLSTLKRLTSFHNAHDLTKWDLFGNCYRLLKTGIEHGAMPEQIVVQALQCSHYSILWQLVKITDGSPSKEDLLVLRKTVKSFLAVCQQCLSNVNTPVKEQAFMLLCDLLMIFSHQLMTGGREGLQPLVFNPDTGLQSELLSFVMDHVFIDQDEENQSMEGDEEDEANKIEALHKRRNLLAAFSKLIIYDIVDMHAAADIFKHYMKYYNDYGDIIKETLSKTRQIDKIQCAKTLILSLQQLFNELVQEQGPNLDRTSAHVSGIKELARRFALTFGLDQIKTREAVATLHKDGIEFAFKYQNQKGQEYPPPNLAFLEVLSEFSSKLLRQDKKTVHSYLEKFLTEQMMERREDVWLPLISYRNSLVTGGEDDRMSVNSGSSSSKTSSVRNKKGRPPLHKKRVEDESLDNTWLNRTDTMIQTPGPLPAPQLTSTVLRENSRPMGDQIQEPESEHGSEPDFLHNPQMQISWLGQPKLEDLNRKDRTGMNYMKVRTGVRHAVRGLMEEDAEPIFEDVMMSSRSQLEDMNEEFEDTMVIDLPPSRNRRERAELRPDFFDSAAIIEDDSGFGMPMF
UniProt Q96SB4, whole entry, looked up: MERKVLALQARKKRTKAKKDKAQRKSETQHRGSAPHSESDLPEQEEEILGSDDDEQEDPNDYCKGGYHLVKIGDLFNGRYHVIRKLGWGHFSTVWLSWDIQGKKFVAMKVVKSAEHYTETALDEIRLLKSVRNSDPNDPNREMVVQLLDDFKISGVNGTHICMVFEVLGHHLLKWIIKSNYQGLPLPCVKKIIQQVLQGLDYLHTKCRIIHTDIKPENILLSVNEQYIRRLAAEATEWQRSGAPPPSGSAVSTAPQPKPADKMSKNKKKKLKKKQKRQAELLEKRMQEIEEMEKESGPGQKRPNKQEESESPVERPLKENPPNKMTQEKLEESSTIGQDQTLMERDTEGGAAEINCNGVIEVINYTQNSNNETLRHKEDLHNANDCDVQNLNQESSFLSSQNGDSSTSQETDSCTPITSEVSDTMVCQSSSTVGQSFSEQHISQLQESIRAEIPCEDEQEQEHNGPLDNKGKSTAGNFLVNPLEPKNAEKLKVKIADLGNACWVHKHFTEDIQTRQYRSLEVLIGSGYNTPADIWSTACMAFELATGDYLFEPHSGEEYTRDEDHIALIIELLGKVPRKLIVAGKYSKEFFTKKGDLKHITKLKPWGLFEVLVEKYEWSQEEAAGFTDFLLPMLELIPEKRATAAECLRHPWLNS
UniProt Q15831: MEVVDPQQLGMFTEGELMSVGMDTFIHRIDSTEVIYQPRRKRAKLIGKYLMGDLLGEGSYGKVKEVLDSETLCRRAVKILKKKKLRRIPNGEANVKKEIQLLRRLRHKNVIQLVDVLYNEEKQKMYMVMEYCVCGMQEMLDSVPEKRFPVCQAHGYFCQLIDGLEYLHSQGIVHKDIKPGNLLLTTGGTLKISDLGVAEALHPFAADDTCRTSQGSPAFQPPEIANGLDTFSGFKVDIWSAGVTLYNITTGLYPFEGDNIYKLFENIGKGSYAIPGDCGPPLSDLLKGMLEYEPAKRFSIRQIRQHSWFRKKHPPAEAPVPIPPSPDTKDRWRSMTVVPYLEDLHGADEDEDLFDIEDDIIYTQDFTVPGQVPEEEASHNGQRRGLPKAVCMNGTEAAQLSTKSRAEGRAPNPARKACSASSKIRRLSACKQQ
UniProt Q9NZD8: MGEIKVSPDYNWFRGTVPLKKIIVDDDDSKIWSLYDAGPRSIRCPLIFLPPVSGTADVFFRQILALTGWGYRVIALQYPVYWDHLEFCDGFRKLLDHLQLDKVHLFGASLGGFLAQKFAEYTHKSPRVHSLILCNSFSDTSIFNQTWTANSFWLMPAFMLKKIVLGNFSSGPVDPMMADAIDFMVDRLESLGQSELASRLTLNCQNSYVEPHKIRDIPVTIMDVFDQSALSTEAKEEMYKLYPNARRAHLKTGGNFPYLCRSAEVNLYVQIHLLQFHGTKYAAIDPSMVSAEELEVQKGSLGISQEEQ
UniProt P09132: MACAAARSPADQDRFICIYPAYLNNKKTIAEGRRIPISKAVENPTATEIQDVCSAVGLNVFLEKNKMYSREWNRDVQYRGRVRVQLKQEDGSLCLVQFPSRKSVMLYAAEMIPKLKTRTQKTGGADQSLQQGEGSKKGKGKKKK
UniProt Q9UBP0: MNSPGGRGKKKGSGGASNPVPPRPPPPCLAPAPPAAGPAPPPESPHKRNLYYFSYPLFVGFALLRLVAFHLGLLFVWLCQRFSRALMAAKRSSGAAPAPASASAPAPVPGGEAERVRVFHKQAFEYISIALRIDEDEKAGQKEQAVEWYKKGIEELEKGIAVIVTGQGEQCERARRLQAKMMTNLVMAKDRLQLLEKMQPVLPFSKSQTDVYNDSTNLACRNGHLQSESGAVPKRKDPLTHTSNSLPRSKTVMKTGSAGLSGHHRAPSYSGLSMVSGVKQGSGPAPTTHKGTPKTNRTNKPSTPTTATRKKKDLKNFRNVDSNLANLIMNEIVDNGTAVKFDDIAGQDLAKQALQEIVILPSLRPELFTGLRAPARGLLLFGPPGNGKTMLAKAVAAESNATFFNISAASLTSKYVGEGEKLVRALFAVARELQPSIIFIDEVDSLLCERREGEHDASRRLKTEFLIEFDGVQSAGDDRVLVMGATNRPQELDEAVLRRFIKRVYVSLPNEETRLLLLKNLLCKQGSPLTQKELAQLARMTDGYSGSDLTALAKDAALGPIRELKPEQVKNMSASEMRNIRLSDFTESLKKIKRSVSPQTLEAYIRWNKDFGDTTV
UniProt Q04837: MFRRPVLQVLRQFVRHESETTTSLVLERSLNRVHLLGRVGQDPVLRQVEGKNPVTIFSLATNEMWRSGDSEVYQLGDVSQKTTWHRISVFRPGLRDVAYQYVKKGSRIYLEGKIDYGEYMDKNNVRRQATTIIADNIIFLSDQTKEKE
UniProt O76094: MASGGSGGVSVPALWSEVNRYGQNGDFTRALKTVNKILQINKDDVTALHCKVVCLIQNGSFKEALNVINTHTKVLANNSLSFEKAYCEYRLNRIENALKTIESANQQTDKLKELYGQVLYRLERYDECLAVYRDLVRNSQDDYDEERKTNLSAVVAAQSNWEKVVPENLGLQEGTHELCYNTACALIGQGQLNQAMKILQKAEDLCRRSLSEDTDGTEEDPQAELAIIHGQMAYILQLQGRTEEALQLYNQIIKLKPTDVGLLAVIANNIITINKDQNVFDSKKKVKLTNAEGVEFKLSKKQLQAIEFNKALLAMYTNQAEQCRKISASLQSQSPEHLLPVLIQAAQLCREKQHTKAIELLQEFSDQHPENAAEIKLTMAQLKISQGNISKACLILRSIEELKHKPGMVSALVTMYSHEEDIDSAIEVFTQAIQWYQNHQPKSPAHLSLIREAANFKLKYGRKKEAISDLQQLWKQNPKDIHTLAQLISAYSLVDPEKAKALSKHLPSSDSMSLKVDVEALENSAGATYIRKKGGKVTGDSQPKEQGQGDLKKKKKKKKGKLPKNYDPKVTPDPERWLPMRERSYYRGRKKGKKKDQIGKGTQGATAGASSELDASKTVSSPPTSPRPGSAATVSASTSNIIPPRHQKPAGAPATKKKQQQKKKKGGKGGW
UniProt P10124: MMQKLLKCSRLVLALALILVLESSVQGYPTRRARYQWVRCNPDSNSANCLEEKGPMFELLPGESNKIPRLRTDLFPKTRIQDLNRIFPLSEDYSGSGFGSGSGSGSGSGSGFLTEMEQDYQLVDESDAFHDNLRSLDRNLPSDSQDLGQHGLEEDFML
UniProt P42226: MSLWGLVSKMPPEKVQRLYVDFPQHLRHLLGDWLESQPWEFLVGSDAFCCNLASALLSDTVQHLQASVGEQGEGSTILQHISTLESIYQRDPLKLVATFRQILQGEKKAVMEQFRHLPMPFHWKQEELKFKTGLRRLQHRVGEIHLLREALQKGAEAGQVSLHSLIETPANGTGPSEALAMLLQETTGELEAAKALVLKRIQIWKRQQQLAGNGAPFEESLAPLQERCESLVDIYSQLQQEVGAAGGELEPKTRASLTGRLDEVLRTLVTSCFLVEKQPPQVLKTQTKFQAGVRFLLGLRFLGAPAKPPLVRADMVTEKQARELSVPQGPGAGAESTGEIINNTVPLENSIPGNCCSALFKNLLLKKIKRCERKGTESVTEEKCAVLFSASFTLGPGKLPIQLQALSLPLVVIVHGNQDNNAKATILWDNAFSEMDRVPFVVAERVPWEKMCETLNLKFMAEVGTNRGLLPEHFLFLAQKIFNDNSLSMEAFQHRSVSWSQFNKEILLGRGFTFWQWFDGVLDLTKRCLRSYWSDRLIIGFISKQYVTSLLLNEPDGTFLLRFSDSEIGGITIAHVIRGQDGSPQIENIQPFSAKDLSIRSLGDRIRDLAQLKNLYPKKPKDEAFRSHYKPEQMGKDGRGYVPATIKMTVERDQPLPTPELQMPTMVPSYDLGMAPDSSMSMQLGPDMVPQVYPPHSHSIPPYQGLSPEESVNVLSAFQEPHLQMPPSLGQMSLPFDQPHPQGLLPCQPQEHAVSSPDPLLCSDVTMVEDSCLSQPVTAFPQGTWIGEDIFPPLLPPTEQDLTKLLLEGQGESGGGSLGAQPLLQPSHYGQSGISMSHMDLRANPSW
UniProt P31948, whole entry, looked up: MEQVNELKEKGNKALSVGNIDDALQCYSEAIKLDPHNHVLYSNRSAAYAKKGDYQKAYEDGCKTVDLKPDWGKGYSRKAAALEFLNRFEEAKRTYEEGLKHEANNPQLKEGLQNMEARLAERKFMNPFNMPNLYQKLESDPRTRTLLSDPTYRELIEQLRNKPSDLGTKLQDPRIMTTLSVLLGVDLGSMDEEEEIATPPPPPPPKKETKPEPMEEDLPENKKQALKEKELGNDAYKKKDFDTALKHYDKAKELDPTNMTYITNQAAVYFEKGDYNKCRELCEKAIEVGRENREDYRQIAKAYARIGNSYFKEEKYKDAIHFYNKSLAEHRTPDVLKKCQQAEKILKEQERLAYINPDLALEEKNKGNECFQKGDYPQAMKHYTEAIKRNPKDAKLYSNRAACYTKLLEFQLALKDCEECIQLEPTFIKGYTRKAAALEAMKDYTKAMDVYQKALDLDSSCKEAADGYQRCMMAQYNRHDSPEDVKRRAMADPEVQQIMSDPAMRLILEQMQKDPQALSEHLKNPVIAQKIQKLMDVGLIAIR

Assays:
Assay in all cases: log2 fold change, soluble protein after heating vs DMSO (PISA); higher = thermal stabilisation; K562 cells, 10 uM, 30 min; active = over 0.2 and 3.5 SD of the protein, either way, in both replicates (recomputed)
[1] = compound: CS(=O)(=O)c1ccc(-c2cnc(N)c(C(=O)Nc3ccccc3)n2)cc1
Procedure, shortened: (§1)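 Thermal stability values are relative to control samples and come from duplicates. They are expressed as log2 fold changes. For measurement, K562 cells (2×10^6 cells/mL) received 10 μM compound for 30 min, and aliquots were heated for 3 min over 48°C-58°C, pooled, and extracted at 4°C in PBS with 0.5% NP-40. Soluble protein, the supernatant after 21,000xg for 90 min, was quantified by TMTpro 16plex LC-MS/MS with equalised channel sums.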

crizotinib = compound: C[C@@H](Oc1cc(-c2cnn(C3CCNCC3)c2)cnc1N)c1c(Cl)ccc(F)c1Cl [crizotinib]
Procedure, shortened: as §1

[2] = compound: C[C@@H]1COCCN1C2=NC(=NC(=C2)C3(CC3)S(=O)(=O)C)C4=C5C=CNC5=CC=C4
Procedure, shortened: as §1

[3] = compound: C[C@H](C1=CC=C(C=C1)C(=O)NC2=C3C=CNC3=NC=C2)N
Procedure, shortened: as §1

duvelisib = compound: C[C@H](Nc1ncnc2nc[nH]c12)c1cc2cccc(Cl)c2c(=O)n1-c1ccccc1 [duvelisib]
Procedure, shortened: as §1

gandotinib = compound: Cc1cc(Nc2cc(CN3CCOCC3)c3nc(C)c(Cc4ccc(Cl)cc4F)n3n2)n[nH]1 [gandotinib]
Procedure, shortened: as §1

tozasertib = compound: Cc1cc(Nc2cc(N3CCN(C)CC3)nc(Sc3ccc(NC(=O)C4CC4)cc3)n2)n[nH]1 [tozasertib]
Procedure, shortened: as §1

[4] = compound: Cc1cc(SCc2sc(-c3ccc(C(F)(F)F)cc3)nc2C)ccc1OCC(=O)O
Procedure, shortened: as §1

doramapimod = compound: Cc1ccc(-n2nc(C(C)(C)C)cc2NC(=O)Nc2ccc(OCCN3CCOCC3)c3ccccc23)cc1 [doramapimod]
Procedure, shortened: as §1

ispinesib = compound: Cc1ccc(C(=O)N(CCCN)[C@@H](c2nc3cc(Cl)ccc3c(=O)n2Cc2ccccc2)C(C)C)cc1 [ispinesib]
Procedure, shortened: as §1

bafetinib = compound: Cc1ccc(NC(=O)c2ccc(CN3CC[C@H](N(C)C)C3)c(C(F)(F)F)c2)cc1Nc1nccc(-c2cncnc2)n1 [bafetinib]
Procedure, shortened: as §1

[5] = compound: Cc1cccc(CC(=O)N2CCc3c2ccc(-c2cn(C)c4ncnc(N)c24)c3F)n1
Procedure, shortened: as §1

nilotinib = compound: Cc1cn(-c2cc(NC(=O)c3ccc(C)c(Nc4nccc(-c5cccnc5)n4)c3)cc(C(F)(F)F)c2)cn1 [nilotinib]
Procedure, shortened: as §1

[6] = compound: Cc1nc(Nc2n[nH]c3c2CN(C(=O)N[C@H](CN(C)C)c2ccccc2)C3(C)C)c2sccc2n1
Procedure, shortened: as §1

dasatinib = compound: Cc1nc(Nc2ncc(C(=O)Nc3c(C)cccc3Cl)s2)cc(N2CCN(CCO)CC2)n1 [dasatinib]
Procedure, shortened: as §1

[7] = compound: Cc1ncc(-c2ccnc(Nc3ccc(S(C)(=O)=O)cc3)n2)n1C(C)C
Procedure, shortened: as §1

[8] = compound: Cn1cc(-c2ccc3c(c2)CCN3C(=O)Cc2cccc(C(F)(F)F)c2)c2c(N)ncnc21
Procedure, shortened: as §1

[9] = compound: Cn1cc(-c2ccc3nnc(C(F)(F)c4ccc5ncccc5c4)n3n2)cn1
Procedure, shortened: as §1

tipifarnib = compound: Cn1cncc1[C@@](N)(c1ccc(Cl)cc1)c1ccc2c(c1)c(-c1cccc(Cl)c1)cc(=O)n2C [tipifarnib]
Procedure, shortened: as §1

mubritinib = compound: FC(F)(F)c1ccc(/C=C/c2nc(COc3ccc(CCCCn4ccnn4)cc3)co2)cc1 [mubritinib]
Procedure, shortened: as §1

Target | log2 fold change [1] | log2 fold change (crizotinib) | log2 fold change [2] | log2 fold change [3] | log2 fold change (duvelisib) | log2 fold change (gandotinib) | log2 fold change (tozasertib) | log2 fold change [4] | log2 fold change (doramapimod) | log2 fold change (ispinesib) | log2 fold change (bafetinib) | log2 fold change [5] | log2 fold change (nilotinib) | log2 fold change [6] | log2 fold change (dasatinib) | log2 fold change [7] | log2 fold change [8] | log2 fold change [9] | log2 fold change (tipifarnib) | log2 fold change (mubritinib)
ST7 (UniProt Q9NRC1) | inactive: -0.002 | inactive: 0.072 | inactive: -0.055 | inactive: 0.078 | inactive: -0.051 | inactive: -0.112 | inactive: -0.041 | inactive: -0.014 | inactive: 0.072 | inactive: -0.056 | inactive: 0.057 | inactive: 0.01 | inactive: -0.022 | inactive: 0.023 | inactive: 0.001 | inactive: 0.037 | inactive: -0.055 | inactive: -0.064 | inactive: 0.082 | inactive: 0.036
SPCS3 (UniProt P61009) | inactive: 0.057 | inactive: 0.079 | inactive: 0.028 | inactive: 0.008 | inactive: -0.008 | inactive: -0.013 | inactive: -0.02 | inactive: -0.029 | inactive: -0.029 | inactive: -0.021 | inactive: -0.103 | inactive: -0.001 | inactive: 0.027 | inactive: -0.021 | inactive: 0.037 | inactive: -0.044 | inactive: 0.017 | inactive: 0.002 | inactive: 0.066 | inactive: 0.022
STAG1 (UniProt Q8WVM7) | inactive: 0.06 | inactive: 0.001 | inactive: -0.03 | inactive: -0.084 | inactive: 0.037 | inactive: -0.026 | inactive: 0.035 | inactive: 0.024 | inactive: 0.015 | inactive: 0.019 | inactive: -0.015 | inactive: 0.063 | inactive: 0.036 | inactive: -0.097 | inactive: -0.049 | inactive: -0.085 | inactive: 0.012 | inactive: -0.016 | inactive: 0.003 | inactive: 0.072
ST13 (UniProt P50502) | inactive: 0.007 | inactive: -0.003 | inactive: 0.058 | inactive: -0.015 | inactive: -0.009 | inactive: -0.066 | inactive: 0.033 | inactive: 0.032 | inactive: -0.015 | inactive: -0.013 | inactive: -0.015 | inactive: 0.02 | inactive: -0.021 | inactive: -0.009 | inactive: -0.074 | inactive: -0.011 | inactive: 0.05 | inactive: 0.02 | inactive: -0.065 | inactive: 0.047
SRGAP2 (UniProt O75044) | inactive: -0.03 | inactive: 0.024 | inactive: 0.111 | inactive: 0.098 | inactive: 0.043 | inactive: -0.104 | inactive: 0.027 | inactive: 0.064 | inactive: 0.012 | inactive: 0.007 | inactive: -0.028 | inactive: 0.002 | inactive: 0.025 | inactive: -0.095 | inactive: -0.035 | inactive: -0.015 | inactive: -0.006 | inactive: -0.009 | inactive: 0.048 | inactive: 0.026
SRPK1 (UniProt Q96SB4) | inactive: -0.039 | inactive: -0.07 | inactive: -0.468 | inactive: 0.531 | inactive: -0.313 | inactive: 0.347 | inactive: 0.005 | inactive: 0.064 | inactive: 0.325 | inactive: -0.204 | inactive: 0.24 | inactive: 0 | inactive: -0.02 | inactive: 0.702 | inactive: 0.078 | inactive: 0.001 | inactive: -0.301 | inactive: -0.156 | inactive: 0.144 | inactive: -0.121
STK11 (UniProt Q15831) | inactive: 0.032 | inactive: 0.063 | inactive: 0.019 | inactive: -0.044 | inactive: 0.112 | inactive: 0.021 | inactive: 0 | inactive: 0.05 | inactive: -0.07 | inactive: 0.072 | inactive: -0.036 | inactive: -0.085 | inactive: 0.071 | inactive: -0.062 | inactive: -0.018 | inactive: 0.001 | inactive: -0.009 | inactive: -0.059 | inactive: 0.013 | inactive: 0.056
SPG21 (UniProt Q9NZD8) | inactive: 0.077 | inactive: -0.24 | inactive: 0.053 | inactive: 0.013 | – | inactive: 0 | – | inactive: 0.052 | inactive: 0.091 | inactive: -0.093 | inactive: 0.158 | inactive: -0.129 | inactive: -0.173 | inactive: -0.06 | inactive: -0.087 | inactive: 0.171 | inactive: 0.022 | inactive: 0.027 | inactive: -0.115 | inactive: -0.042
SRP19 (UniProt P09132) | inactive: 0.048 | inactive: 0.02 | inactive: -0.009 | inactive: 0.147 | inactive: -0.007 | inactive: 0.033 | inactive: 0.054 | inactive: 0.096 | inactive: -0.081 | inactive: -0.097 | inactive: -0.059 | inactive: -0.061 | inactive: 0.071 | inactive: 0.008 | inactive: -0.061 | inactive: 0.041 | inactive: -0.13 | inactive: -0.083 | inactive: -0.106 | inactive: 0.017
SPG11 (UniProt Q96JI7) | inactive: 0 | inactive: 0.058 | inactive: -0.282 | inactive: 0.619 | – | inactive: 0.173 | – | inactive: 0 | inactive: -0.01 | inactive: -0.328 | inactive: -0.493 | inactive: -0.584 | inactive: -0.015 | inactive: 0.117 | inactive: 0.065 | inactive: -0.006 | inactive: -0.051 | inactive: 0.146 | inactive: 0.258 | inactive: -0.009
SPAST (UniProt Q9UBP0) | inactive: 0.002 | inactive: -0.074 | inactive: 0.043 | inactive: 0.001 | – | inactive: -0.025 | – | inactive: 0.15 | inactive: -0.078 | inactive: -0.001 | inactive: -0.015 | inactive: -0.057 | inactive: -0.05 | inactive: -0.054 | active: -0.246 | inactive: 0.026 | inactive: 0.099 | inactive: -0.022 | inactive: -0.065 | inactive: 0.036
SSBP1 (UniProt Q04837) | inactive: 0.043 | inactive: 0.077 | inactive: -0.076 | inactive: 0.118 | inactive: -0.024 | inactive: 0.032 | inactive: 0.022 | inactive: -0.011 | inactive: 0.037 | inactive: -0.113 | inactive: 0.01 | inactive: -0.058 | inactive: -0.008 | inactive: 0.029 | inactive: 0.049 | inactive: -0.009 | inactive: -0.038 | inactive: -0.042 | inactive: 0.1 | inactive: -0.014
SRP72 (UniProt O76094) | inactive: 0.021 | inactive: -0.121 | inactive: -0.017 | inactive: 0.167 | – | inactive: -0.08 | – | inactive: 0.154 | inactive: 0.051 | inactive: -0.185 | inactive: 0.05 | inactive: 0.048 | inactive: -0.117 | inactive: -0.03 | inactive: -0.186 | inactive: 0.108 | inactive: -0.052 | inactive: -0.052 | inactive: -0.148 | inactive: -0.036
SRGN (UniProt P10124) | inactive: 0.01 | inactive: 0.036 | inactive: -0.139 | inactive: -0.227 | inactive: 0.061 | inactive: 0.17 | inactive: 0.024 | inactive: -0.071 | inactive: 0.061 | inactive: 0.11 | inactive: 0.099 | inactive: -0.011 | inactive: 0.252 | inactive: -0.092 | inactive: 0.389 | inactive: -0.015 | inactive: -0.056 | inactive: -0.082 | inactive: 0.059 | inactive: -0.004
STAT6 (UniProt P42226) | inactive: -0.083 | inactive: -0.037 | inactive: 0.028 | inactive: -0.011 | – | inactive: -0.269 | – | inactive: -0.123 | inactive: 0.043 | inactive: -0.033 | inactive: 0.027 | active: 0.502 | inactive: -0.082 | inactive: -0.181 | inactive: -0.115 | inactive: 0.155 | inactive: -0.099 | inactive: -0.042 | inactive: -0.164 | inactive: 0.179
STIP1 isoform 2 (UniProt P31948) | inactive: -0.046 | inactive: 0.017 | inactive: 0.03 | inactive: -0.044 | inactive: 0.009 | inactive: -0.038 | inactive: 0.009 | inactive: -0.009 | inactive: -0.036 | inactive: 0.061 | inactive: -0.023 | inactive: -0.006 | inactive: -0.014 | inactive: -0.006 | inactive: 0.009 | inactive: 0.006 | inactive: 0.026 | inactive: 0.017 | inactive: 0.013 | inactive: 0.025

A few values from the list:
Entry for SRPK1 (UniProt Q96SB4) under log2 fold change (ispinesib): inactive: -0.204
Entry for SRP19 (UniProt P09132) under log2 fold change [5]: inactive: -0.061
